Our source for the binding values is article PMC6470638.

Protein sequences, listed by entry. Tags and fused reporters are not part of them. Residues count along the entry.
UniProt P08721, residues 17-317: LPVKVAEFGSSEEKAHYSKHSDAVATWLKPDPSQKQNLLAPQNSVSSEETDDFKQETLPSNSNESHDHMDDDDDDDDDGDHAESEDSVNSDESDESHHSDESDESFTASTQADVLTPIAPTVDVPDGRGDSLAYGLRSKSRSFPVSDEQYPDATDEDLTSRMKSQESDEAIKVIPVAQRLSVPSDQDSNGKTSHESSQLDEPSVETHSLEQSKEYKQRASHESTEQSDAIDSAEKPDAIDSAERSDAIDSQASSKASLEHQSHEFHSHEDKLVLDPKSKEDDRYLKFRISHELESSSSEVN
UniProt P63095: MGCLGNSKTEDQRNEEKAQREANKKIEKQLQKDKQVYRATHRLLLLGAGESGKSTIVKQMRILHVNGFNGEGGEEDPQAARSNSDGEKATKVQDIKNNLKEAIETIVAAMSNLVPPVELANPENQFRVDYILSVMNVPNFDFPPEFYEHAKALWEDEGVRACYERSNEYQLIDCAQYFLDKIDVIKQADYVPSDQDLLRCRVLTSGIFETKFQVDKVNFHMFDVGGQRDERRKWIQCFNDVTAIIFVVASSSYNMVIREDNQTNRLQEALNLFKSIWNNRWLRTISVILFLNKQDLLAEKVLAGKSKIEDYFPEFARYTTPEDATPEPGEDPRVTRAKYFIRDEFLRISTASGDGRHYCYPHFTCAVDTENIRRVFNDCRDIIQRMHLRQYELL

Results are given in words; binding and its absence hold for the method and conditions named. Binding seen in cells or lysates may run through a third protein. Some entries that bind do so weakly or less than the wild type.

This experiment has as its target Osteopontin (rat (endogenous in H9c2)) (UniProt P08721). Nature of the experiment: co-IP; OPN immunoprecipitated overnight from extracts of native WT H9c2 cells (20 mM Tris pH 7.4, 137 mM NaCl, 1% Nonidet P-40, 20% glycerol) with mouse anti-OPN antibody on Protein A/G-Sepharose beads; immunoblot for Gαs/olf; cells treated with vehicle or 10 µM salbutamol; IgG IP as negative control. Background: Immunoblotting shows a protein as a band on a membrane.

On to “Gαs/olf protein subunit (from UniProt P63095 1-394)”, for which the binding result is recorded as “binds weakly”.
